According to PMC4017094, “Mouse SLX4 Is a Tumor Suppressor that Stimulates the Activity of the Nuclease XPF-ERCC1 in DNA Crosslink Repair” (Molecular Cell, 2014):
Changes are numbered by the printed parent chain. These are yes or no findings as the source states them, for the method shown. For part of these data: In cells and extracts the contact can be indirect. Some entries that bind do so weakly or less than the wild type. For part of these data: Sequences can lack the tags named with a protein.

Key:
[1] = target: Full-length FLAG-tagged SLX4 (mouse) (UniProt Q6P1D7); assay: co-IP; anti-FLAG immunoprecipitation from Slx4f3/f3 MEFs expressing FLAG-SLX4 or FLAG-mini-SLX4; western blot
[2] = target: T1, FLAG-tagged mini-SLX4 (SLX4 1-758) (mouse) (UniProt Q6P1D7); assay: as above
T1 sequence: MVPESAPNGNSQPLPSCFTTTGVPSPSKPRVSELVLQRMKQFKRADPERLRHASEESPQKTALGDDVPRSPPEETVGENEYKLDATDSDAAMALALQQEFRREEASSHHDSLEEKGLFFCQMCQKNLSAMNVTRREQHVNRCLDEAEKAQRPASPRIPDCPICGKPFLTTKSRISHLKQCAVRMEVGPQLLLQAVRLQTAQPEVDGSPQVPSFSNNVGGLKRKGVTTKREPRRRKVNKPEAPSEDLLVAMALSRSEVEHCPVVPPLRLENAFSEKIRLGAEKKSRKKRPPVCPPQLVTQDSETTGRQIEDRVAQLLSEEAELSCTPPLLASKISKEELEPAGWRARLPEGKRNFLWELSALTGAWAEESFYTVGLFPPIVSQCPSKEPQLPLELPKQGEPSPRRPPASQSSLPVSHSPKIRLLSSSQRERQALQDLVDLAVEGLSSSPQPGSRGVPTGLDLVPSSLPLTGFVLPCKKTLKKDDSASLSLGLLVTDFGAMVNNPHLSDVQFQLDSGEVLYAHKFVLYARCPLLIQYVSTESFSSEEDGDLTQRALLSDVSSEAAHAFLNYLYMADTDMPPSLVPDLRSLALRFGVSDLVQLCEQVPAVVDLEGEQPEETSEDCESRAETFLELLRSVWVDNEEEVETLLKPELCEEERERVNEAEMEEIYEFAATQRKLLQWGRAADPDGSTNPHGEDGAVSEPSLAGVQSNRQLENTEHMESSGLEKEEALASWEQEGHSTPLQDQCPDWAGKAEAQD

[3] = target: T2, XPF-ERCC1 nuclease (XE), recombinant (UniProt Q9QZD4 1-917; P07903 1-298); assay: SEC; analytical gel filtration of the purified SXE complex, with Coomassie gels of the fractions; both purified
T2 sequence (looked up) 1: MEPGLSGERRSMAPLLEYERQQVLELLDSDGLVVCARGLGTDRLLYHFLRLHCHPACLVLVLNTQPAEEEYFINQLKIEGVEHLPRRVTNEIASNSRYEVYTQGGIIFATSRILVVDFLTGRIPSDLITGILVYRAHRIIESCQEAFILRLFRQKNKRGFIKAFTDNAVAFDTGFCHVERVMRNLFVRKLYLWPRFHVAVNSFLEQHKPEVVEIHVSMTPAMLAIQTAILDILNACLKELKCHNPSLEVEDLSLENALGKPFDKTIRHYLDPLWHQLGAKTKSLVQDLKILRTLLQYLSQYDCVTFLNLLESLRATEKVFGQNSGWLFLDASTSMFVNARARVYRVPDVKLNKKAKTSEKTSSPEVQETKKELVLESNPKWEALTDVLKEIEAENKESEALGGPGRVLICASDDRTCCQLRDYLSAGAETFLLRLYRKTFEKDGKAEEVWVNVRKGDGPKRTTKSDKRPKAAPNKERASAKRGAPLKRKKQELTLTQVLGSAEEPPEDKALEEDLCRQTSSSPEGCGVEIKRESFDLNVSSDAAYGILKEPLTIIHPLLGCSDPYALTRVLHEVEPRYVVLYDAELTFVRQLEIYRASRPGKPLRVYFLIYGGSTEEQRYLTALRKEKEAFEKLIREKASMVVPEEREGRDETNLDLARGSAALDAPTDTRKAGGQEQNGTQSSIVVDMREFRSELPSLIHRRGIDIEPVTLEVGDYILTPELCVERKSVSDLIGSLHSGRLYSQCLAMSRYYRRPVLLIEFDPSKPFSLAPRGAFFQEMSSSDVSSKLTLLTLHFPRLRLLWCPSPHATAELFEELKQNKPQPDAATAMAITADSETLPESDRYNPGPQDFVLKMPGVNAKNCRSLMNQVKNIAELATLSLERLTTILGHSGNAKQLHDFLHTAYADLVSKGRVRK
T2 sequence (looked up) 2: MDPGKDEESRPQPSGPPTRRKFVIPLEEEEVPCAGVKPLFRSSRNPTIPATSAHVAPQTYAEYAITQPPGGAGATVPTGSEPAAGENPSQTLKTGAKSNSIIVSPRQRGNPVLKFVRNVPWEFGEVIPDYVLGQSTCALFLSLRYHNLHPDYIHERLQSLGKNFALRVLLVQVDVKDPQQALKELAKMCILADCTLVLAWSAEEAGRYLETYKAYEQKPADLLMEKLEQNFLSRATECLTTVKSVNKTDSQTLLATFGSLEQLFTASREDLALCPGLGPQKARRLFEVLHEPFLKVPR

[4] = target: T2, XPF-ERCC1 nuclease (XE), recombinant; assay: co-purification of a complex expressed in insect cells; complex expressed in insect cells and purified in several steps; Coomassie gel and western blot of the purified complexes
[5] = target: T3, XPF-ERCC1 with XPF D688A (XE DA) (UniProt Q9QZD4); assay: as above
T3 sequence 1: T2 sequence (looked up) 1 with D688A
T3 sequence 2: T2 sequence (looked up) 2

[6] = target: T4, XPF-ERCC1 with XPF R690S (XE RS) (UniProt Q9QZD4); assay: as above
T4 sequence 1: T2 sequence (looked up) 1 with R690S
T4 sequence 2: T2 sequence (looked up) 2

Measured: binding

B1: endogenous XPF-ERCC1 (complex, UniProt Q9QZD4 1-917; P07903 1-298)
chain 1: T2 sequence (looked up) 1
chain 2: T2 sequence (looked up) 2
binds: [1] | [2]

B2: Recombinant mini-SLX4 (1-758) (domain or fragment, mouse, UniProt Q6P1D7 1-758, looked up)
chain: T1 sequence
notes: mouse SLX4, residues 1-758; source: insect cells, purified (in complex with XPF-ERCC1, or alone)
binds: [3] | [4] | [5] | [6]
